# Measurements from the supplement of paper PMC10032668.
# Sequences of proteins named here, by UniProt entry; tags and fusion partners are left off.
# EIF2S2, P20042, UniProt P20042, whole entry: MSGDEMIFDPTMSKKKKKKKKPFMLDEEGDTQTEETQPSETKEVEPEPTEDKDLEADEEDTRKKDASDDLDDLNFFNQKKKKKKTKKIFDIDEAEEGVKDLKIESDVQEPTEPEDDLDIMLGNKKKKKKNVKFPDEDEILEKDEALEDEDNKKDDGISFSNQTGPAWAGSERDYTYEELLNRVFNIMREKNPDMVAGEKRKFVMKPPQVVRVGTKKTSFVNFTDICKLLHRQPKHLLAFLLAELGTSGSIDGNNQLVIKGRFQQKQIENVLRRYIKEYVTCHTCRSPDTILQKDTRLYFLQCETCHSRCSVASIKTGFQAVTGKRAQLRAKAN
# EP300, Q09472, UniProt Q09472, whole entry: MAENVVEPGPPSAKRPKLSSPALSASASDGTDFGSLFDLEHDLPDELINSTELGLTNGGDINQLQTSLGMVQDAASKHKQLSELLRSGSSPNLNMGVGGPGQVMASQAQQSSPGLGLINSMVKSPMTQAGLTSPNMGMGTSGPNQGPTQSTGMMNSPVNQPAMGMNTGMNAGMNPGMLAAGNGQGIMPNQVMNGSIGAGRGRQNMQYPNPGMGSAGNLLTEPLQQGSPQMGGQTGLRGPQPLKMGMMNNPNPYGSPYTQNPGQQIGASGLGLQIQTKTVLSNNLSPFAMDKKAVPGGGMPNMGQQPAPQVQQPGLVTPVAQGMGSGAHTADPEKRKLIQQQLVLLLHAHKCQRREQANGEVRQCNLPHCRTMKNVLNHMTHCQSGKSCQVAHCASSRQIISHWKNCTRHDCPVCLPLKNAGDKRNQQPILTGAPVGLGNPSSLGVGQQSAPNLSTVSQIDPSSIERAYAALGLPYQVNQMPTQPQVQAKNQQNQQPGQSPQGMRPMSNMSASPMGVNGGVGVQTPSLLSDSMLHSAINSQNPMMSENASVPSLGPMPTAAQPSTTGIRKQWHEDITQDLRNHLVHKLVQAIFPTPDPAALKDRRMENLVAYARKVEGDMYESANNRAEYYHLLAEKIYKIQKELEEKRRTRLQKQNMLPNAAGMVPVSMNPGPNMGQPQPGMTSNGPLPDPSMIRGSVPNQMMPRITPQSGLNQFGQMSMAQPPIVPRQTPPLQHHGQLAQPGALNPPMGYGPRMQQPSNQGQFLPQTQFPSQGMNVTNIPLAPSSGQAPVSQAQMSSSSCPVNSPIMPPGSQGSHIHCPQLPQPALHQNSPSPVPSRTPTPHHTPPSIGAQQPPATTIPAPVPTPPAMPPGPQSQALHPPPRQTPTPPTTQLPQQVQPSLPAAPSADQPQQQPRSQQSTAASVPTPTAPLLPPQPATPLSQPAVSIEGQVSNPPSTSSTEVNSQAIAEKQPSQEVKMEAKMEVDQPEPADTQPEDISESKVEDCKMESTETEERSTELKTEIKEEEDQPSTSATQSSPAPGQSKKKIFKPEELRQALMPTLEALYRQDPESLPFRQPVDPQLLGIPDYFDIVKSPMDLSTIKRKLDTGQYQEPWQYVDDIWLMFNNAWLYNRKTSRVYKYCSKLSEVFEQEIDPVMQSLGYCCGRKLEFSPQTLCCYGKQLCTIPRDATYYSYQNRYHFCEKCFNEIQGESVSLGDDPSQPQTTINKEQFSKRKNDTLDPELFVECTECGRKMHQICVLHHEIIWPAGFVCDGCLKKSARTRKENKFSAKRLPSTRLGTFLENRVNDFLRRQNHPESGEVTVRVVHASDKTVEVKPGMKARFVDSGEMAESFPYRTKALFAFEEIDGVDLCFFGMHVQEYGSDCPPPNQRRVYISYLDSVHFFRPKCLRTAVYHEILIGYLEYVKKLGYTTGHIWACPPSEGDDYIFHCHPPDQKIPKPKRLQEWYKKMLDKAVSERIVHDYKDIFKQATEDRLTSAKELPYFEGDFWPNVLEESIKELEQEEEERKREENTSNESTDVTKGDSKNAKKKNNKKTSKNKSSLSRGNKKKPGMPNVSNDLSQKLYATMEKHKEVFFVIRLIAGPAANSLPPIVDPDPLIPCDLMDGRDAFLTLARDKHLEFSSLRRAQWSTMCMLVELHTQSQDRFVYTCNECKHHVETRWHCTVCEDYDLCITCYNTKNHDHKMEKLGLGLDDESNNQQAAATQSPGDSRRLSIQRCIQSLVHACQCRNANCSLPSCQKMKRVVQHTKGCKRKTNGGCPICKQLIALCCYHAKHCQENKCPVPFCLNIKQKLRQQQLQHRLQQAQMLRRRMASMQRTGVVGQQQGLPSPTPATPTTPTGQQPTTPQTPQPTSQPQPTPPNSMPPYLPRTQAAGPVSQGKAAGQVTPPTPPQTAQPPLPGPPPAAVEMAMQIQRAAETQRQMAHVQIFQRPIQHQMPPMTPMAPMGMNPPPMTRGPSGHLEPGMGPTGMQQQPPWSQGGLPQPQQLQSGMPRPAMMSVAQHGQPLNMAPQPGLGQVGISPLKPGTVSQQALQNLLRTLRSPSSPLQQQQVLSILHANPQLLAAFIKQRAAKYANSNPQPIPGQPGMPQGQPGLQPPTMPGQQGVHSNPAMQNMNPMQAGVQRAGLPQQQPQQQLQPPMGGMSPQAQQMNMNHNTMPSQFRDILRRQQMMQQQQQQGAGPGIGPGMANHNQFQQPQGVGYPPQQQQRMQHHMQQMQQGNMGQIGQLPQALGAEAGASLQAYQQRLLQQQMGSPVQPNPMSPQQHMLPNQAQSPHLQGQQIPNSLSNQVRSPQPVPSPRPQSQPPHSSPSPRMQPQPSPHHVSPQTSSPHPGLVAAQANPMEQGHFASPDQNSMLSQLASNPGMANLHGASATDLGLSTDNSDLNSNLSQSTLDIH
# PFN2, P35080, UniProt P35080, whole entry: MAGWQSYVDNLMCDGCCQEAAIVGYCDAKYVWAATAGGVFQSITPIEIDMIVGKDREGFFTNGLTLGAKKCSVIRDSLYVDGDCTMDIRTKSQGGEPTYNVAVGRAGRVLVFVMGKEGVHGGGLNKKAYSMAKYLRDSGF
# RGPD5, Q99666, UniProt Q99666, whole entry: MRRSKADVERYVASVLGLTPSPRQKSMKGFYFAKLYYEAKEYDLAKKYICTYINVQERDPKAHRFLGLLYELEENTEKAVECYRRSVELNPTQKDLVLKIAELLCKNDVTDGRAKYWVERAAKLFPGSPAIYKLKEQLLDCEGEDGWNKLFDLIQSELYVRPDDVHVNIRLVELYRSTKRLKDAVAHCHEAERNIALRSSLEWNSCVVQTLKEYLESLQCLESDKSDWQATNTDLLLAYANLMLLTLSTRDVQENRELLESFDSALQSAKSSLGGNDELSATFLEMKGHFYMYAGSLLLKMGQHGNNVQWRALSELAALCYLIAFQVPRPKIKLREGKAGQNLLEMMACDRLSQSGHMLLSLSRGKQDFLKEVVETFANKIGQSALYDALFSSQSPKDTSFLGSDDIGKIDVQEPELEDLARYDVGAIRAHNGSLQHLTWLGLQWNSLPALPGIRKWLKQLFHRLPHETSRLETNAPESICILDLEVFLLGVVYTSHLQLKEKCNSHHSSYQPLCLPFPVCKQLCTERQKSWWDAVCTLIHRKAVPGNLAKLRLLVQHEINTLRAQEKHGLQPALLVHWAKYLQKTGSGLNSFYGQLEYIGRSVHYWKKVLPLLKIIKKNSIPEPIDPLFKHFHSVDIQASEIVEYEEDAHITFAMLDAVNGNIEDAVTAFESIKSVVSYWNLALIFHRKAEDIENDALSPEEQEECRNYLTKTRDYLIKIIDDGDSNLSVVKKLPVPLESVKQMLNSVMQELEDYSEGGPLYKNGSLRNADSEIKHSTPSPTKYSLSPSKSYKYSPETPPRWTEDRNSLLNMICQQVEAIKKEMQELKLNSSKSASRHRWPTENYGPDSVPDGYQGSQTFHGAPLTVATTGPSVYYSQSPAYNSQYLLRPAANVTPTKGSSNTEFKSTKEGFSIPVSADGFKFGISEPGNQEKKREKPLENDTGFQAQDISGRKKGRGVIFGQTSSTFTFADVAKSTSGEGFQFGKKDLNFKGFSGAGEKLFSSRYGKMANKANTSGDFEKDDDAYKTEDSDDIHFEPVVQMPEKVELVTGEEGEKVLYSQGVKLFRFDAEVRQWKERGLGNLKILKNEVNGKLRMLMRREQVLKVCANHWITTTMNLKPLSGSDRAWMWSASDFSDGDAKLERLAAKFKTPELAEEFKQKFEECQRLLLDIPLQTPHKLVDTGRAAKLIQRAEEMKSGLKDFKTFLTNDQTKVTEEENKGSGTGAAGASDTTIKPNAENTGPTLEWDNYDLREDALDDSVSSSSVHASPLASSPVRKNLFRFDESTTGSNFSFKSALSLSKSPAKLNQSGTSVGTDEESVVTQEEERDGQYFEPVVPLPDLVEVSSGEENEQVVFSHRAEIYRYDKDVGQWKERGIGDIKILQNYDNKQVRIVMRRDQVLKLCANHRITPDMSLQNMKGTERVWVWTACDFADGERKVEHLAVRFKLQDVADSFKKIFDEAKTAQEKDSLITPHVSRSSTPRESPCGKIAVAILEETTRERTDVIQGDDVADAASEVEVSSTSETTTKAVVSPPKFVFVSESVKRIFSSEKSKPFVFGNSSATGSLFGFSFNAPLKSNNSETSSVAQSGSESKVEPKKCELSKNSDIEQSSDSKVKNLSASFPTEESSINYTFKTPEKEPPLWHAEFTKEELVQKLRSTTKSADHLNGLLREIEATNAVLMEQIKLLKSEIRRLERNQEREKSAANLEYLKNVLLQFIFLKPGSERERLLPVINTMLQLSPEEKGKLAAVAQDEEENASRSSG
# SNX1, Q13596, UniProt Q13596, whole entry: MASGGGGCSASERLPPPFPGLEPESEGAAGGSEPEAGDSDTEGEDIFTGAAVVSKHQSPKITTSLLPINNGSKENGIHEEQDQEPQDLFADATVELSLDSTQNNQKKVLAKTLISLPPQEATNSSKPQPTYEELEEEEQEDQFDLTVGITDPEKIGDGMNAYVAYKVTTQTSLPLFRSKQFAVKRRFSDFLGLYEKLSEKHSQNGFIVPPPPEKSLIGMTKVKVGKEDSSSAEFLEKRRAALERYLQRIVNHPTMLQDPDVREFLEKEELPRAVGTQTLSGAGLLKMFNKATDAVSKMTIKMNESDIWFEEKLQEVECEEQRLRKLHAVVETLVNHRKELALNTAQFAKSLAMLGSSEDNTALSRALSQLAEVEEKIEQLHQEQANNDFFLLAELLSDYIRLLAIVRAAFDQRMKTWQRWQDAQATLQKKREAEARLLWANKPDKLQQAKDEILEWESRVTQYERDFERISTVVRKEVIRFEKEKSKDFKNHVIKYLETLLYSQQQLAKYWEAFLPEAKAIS
# GTF2F2, P13984, UniProt P13984, whole entry: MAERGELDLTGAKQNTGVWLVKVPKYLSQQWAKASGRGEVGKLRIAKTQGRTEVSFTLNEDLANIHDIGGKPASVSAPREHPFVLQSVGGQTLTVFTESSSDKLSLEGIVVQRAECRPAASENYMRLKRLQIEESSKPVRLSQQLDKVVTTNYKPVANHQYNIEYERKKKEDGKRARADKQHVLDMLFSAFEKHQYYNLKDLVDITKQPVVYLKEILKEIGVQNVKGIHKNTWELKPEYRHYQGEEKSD
# HIST1H1E, P10412, UniProt P10412, whole entry: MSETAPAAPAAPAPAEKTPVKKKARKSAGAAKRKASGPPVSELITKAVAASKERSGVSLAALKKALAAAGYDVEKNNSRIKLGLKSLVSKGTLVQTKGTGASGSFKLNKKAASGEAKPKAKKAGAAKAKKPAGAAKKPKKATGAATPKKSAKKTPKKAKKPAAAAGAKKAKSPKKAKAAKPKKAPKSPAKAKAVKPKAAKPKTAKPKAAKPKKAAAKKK
# RAB7A, P51149, UniProt P51149, whole entry: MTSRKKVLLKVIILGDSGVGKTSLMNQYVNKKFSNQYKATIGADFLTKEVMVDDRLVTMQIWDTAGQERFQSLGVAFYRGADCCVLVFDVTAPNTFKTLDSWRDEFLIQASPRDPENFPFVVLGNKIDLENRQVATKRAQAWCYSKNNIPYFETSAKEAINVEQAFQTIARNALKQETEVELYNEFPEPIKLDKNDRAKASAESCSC
# This is one part of the list. Only hits are listed; about a third recur on repeated control peptides.
# B1: RP11-620J15.3 (peptide)
# chain: LAVKENRECAKEHTD
# B2: CTC-471J1.11 (peptide)
# chain: PLGTSVTIVNAKRFR
# Columns and labels:
# Test in all cases: PRISMA enrichment of interactor (LFQ) in peptide spot vs all other peptide spots (log2 fold change); higher = stronger / more specific binding of the interactor to the peptide
# [1] = biological target: ACTB, P60709
# Method: (§1)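 PRISMA: 15-aa overlapping tiles (offset 8 aa) of 60 microproteins, plus SOS1/GLUT1 control peptides, were spot-synthesized on cellulose membranes in triplicate. Membranes were incubated with benzonase-treated HEK293T lysate, and bound proteins were identified by LC-MS/MS with LFQ. Enrichment is the log2 fold change of each protein in one spot versus all other spots. Only interactors passing the significance cutoff are listed.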
# [2] = biological target: C18orf21, Q32NC0
# Method: as §1
# [3] = biological target: CEP290, O15078
# Method: as §1
# [4] = biological target: CHD4, Q14839
# Method: as §1
# [5] = biological target: CLPB, Q9H078
# Method: as §1
# [6] = biological target: CMSS1, Q9BQ75
# Method: as §1
# [7] = biological target: DHX37, Q8IY37
# Method: as §1
# [8] = biological target: DUSP9, Q99956
# Method: as §1
# [9] = biological target: EIF2S2, P20042
# Method: as §1
# [10] = biological target: EP300, Q09472
# Method: as §1
# [11] = biological target: JPT2, Q9H910
# Method: as §1
# [12] = biological target: MAP4, P27816
# Method: as §1
# [13] = biological target: MED15, Q96RN5
# Method: as §1
# [14] = biological target: NEK7, Q8TDX7
# Method: as §1
# [15] = biological target: PFN2, P35080
# Method: as §1
# [16] = biological target: RBM17, Q96I25
# Method: as §1
# [17] = biological target: RBM27, Q9P2N5
# Method: as §1
# [18] = biological target: RCE1, Q9Y256
# Method: as §1
# [19] = biological target: RFC1, P35251
# Method: as §1
# [20] = biological target: RGPD5, Q99666
# Method: as §1
# [21] = biological target: RRP9, O43818
# Method: as §1
# [22] = biological target: SAFB, Q15424
# Method: as §1
# [23] = biological target: SART3, Q15020
# Method: as §1
# [24] = biological target: SNX1, Q13596
# Method: as §1
# [25] = biological target: SURF6, O75683
# Method: as §1
# [26] = biological target: TBCD, Q9BTW9
# Method: as §1
# [27] = biological target: ZNF428, Q96B54
# Method: as §1
# [28] = biological target: ACSL3, O95573
# Method: as §1
# [29] = biological target: AP1B1, Q10567
# Method: as §1
# [30] = biological target: BTF3L4, Q96K17
# Method: as §1
# [31] = biological target: DDX42, Q86XP3
# Method: as §1
# [32] = biological target: DNAJC13, O75165
# Method: as §1
# [33] = biological target: FAM207A, Q9NSI2
# Method: as §1
# [34] = biological target: FRG1, Q14331
# Method: as §1
# [35] = biological target: GTF2F2, P13984
# Method: as §1
# [36] = biological target: HIST1H1E, P10412
# Method: as §1
# [37] = biological target: LIMA1, Q9UHB6
# Method: as §1
# [38] = biological target: OXA1L, Q15070
# Method: as §1
# [39] = biological target: PDXDC1, Q6P996
# Method: as §1
# [40] = biological target: PSMA7, O14818
# Method: as §1
# [41] = biological target: PUS1, Q9Y606
# Method: as §1
# [42] = biological target: PYCR1, P32322
# Method: as §1
# [43] = biological target: RAB11A, P62491
# Method: as §1
# [44] = biological target: RAB7A, P51149
# Method: as §1
# [45] = biological target: RABL3, Q5HYI8
# Method: as §1
# [46] = biological target: RALY, Q9UKM9
# Method: as §1
# [47] = biological target: RBIS, Q8N0T1
# Method: as §1
# [48] = biological target: RNF2, Q99496
# Method: as §1
binder,measurement,setting,value
B1,PRISMA enrichment of interactor (log2),[1],4.92
same,PRISMA enrichment of interactor (log2),[2],4.8
same,PRISMA enrichment of interactor (log2),[3],6.03
same,PRISMA enrichment of interactor (log2),[4],8.15
same,PRISMA enrichment of interactor (log2),[5],5.97
same,PRISMA enrichment of interactor (log2),[6],5.72
same,PRISMA enrichment of interactor (log2),[7],7.72
same,PRISMA enrichment of interactor (log2),[8],4.14
same,PRISMA enrichment of interactor (log2),[9],6.83
same,PRISMA enrichment of interactor (log2),[10],5.01
same,PRISMA enrichment of interactor (log2),[11],5.22
same,PRISMA enrichment of interactor (log2),[12],5.12
same,PRISMA enrichment of interactor (log2),[13],3.82
same,PRISMA enrichment of interactor (log2),[14],4.37
same,PRISMA enrichment of interactor (log2),[15],5.77
same,PRISMA enrichment of interactor (log2),[16],4.94
same,PRISMA enrichment of interactor (log2),[17],4.94
same,PRISMA enrichment of interactor (log2),[18],3.83
same,PRISMA enrichment of interactor (log2),[19],4.71
same,PRISMA enrichment of interactor (log2),[20],5.56
same,PRISMA enrichment of interactor (log2),[21],5.71
same,PRISMA enrichment of interactor (log2),[22],5.22
same,PRISMA enrichment of interactor (log2),[23],9
same,PRISMA enrichment of interactor (log2),[24],7.97
same,PRISMA enrichment of interactor (log2),[25],4.43
same,PRISMA enrichment of interactor (log2),[26],7.35
same,PRISMA enrichment of interactor (log2),[27],4.59
B2,PRISMA enrichment of interactor (log2),[28],5.65
same,PRISMA enrichment of interactor (log2),[29],5.65
same,PRISMA enrichment of interactor (log2),[30],6.71
same,PRISMA enrichment of interactor (log2),[31],5.59
same,PRISMA enrichment of interactor (log2),[32],4.78
same,PRISMA enrichment of interactor (log2),[33],8.88
same,PRISMA enrichment of interactor (log2),[34],4.17
same,PRISMA enrichment of interactor (log2),[35],7.79
same,PRISMA enrichment of interactor (log2),[36],5.79
same,PRISMA enrichment of interactor (log2),[37],4.22
same,PRISMA enrichment of interactor (log2),[38],5.37
same,PRISMA enrichment of interactor (log2),[39],5.67
same,PRISMA enrichment of interactor (log2),[40],5.41
same,PRISMA enrichment of interactor (log2),[41],5.35
same,PRISMA enrichment of interactor (log2),[42],4.87
same,PRISMA enrichment of interactor (log2),[43],5.04
same,PRISMA enrichment of interactor (log2),[44],5.53
same,PRISMA enrichment of interactor (log2),[45],4.53
same,PRISMA enrichment of interactor (log2),[46],6.98
same,PRISMA enrichment of interactor (log2),[47],5.97
same,PRISMA enrichment of interactor (log2),[20],4.77
same,PRISMA enrichment of interactor (log2),[48],4.81

# 13 successive entries from above:
binder,measurement,setting,value
B1,PRISMA enrichment of interactor (log2),[6],5.72
same,PRISMA enrichment of interactor (log2),[7],7.72
same,PRISMA enrichment of interactor (log2),[8],4.14
same,PRISMA enrichment of interactor (log2),[9],6.83
same,PRISMA enrichment of interactor (log2),[10],5.01
same,PRISMA enrichment of interactor (log2),[11],5.22
same,PRISMA enrichment of interactor (log2),[12],5.12
same,PRISMA enrichment of interactor (log2),[13],3.82
same,PRISMA enrichment of interactor (log2),[14],4.37
same,PRISMA enrichment of interactor (log2),[15],5.77
same,PRISMA enrichment of interactor (log2),[16],4.94
same,PRISMA enrichment of interactor (log2),[17],4.94
same,PRISMA enrichment of interactor (log2),[18],3.83
